ChEMBL document CHEMBL4513154, “CO-ADD screening of Jain University (India) compounds”
Some of the results follow. Potency and affinity values are given separately.

tested on: Pseudomonas aeruginosa; settings: Concentration 32 ug.mL-1; ASSAY_TEST Inhibition of Bacterial Growth; detection method Absorption (OD600); MEDIA CAMHB; plate type 384well; NBS; CORNING #3640; time 18 hr

Compound | Inhibition [%]
N#Cc1ccccc1-c1ccc(Cn2c(-c3cscn3)nc3cc(Cl)ccc32)cc1 | 13.15
N#Cc1ccccc1-c1ccc(Cn2c(-c3cscn3)nc3ccc(Cl)cc32)cc1 | 10.52
Fc1cc(Cn2c(-c3cscn3)nc3c(Cl)cccc32)cc(C(F)(F)F)c1 | 7.84
N=C(Nc1ccccc1)c1cscn1 | 1.73
N#Cc1ccc(Cn2c(-c3cscn3)nc3c(Cl)cccc32)cc1 | -22.73
Clc1ccc2c(c1)nc(-c1cscn1)n2Cc1ccccc1 | 8.18
CCc1ccc(-n2c(-c3sc(Nc4ccccc4)nc3N)nc3ccccc3c2=O)cc1 | -11.75
Clc1cccc2[nH]c(-c3cscn3)nc12 | 4.45
Nc1nc(Nc2ccc(Cl)cc2)sc1-c1nc2ccccc2c(=O)n1-c1ccccc1 | 12.65
CCc1ccc(Nc2nc(N)c(-c3nc4ccccc4c(=O)n3-c3ccc(Cl)cc3)s2)cc1 | 20.49
Nc1nc(Nc2ccccc2)sc1-c1nc2ccccc2c(=O)n1-c1ccc(Cl)cc1 | -20.53
N=C(Nc1ccccc1Cl)c1cscn1 | 77.11
N#Cc1ccccc1-c1ccc(Cn2c(-c3cscn3)nc3c(Cl)cccc32)cc1 | -1.85
N#Cc1ccccc1-c1ccc(Cn2c(-c3cscn3)nc3ccccc32)cc1 | 9.08
CC(C)c1ccc(Cn2c(-c3cscn3)nc3c(Cl)cccc32)cc1 | 2.02
CCc1ccc(Nc2nc(N)c(-c3nc4ccccc4c(=O)n3-c3ccc(CC)cc3)s2)cc1 | 19.57
Cn1c(-c2cscn2)nc2c(Cl)cccc21 | 8.59
Clc1cccc2c1nc(-c1cscn1)n2Cc1ccccc1 | 12.34
Cn1c(-c2cscn2)nc2cc(Cl)ccc21 | 12.13
Clc1ccc2nc(-c3cscn3)n(Cc3ccccc3)c2c1 | 1.4
CCc1ccc(Nc2nc(N)c(-c3nc4ccccc4c(=O)n3-c3ccccc3)s2)cc1 | 12.66
O=[N+]([O-])c1ccc(Cn2c(-c3cscn3)nc3ccccc32)cc1 | 14.88
Nc1nc(Nc2ccccc2)sc1-c1nc2ccccc2c(=O)n1-c1ccccc1 | 16.07

Some of the entries so far, as comma-separated lines:
Compound,Inhibition [%]
N#Cc1ccc(Cn2c(-c3cscn3)nc3c(Cl)cccc32)cc1,-22.73
N#Cc1ccccc1-c1ccc(Cn2c(-c3cscn3)nc3c(Cl)cccc32)cc1,-1.85
Cn1c(-c2cscn2)nc2cc(Cl)ccc21,12.13
Clc1ccc2nc(-c3cscn3)n(Cc3ccccc3)c2c1,1.4
